These are yes or no findings as the source states them, for the method shown. For some of these results: In cells and extracts the contact can be indirect. Some results given as binding are weak or reduced against the parent protein; the word gives no strength. Tags and fused reporters may be left off the sequences shown. Each block holds one molecule with its values, some of them ahead of it.
Tests used:
[1] = target: T1, Flag-TBK1 E232Q mutant (human) (UniProt Q9UHD2); test: co-IP; Flag-TBK1 (wild-type or mutant) and mCherry-OPTN co-transfected in HEK293T for 48 h; lysis buffer 20 mM Tris-HCl, 150 mM NaCl, 5 mM MgCl2, 1% Triton X-100; lysate mixed with anti-DDDDK antibody-coupled magnetic beads for 30 min; blots with anti-DDDDK-tag and anti-RFP antibodies
T1 sequence: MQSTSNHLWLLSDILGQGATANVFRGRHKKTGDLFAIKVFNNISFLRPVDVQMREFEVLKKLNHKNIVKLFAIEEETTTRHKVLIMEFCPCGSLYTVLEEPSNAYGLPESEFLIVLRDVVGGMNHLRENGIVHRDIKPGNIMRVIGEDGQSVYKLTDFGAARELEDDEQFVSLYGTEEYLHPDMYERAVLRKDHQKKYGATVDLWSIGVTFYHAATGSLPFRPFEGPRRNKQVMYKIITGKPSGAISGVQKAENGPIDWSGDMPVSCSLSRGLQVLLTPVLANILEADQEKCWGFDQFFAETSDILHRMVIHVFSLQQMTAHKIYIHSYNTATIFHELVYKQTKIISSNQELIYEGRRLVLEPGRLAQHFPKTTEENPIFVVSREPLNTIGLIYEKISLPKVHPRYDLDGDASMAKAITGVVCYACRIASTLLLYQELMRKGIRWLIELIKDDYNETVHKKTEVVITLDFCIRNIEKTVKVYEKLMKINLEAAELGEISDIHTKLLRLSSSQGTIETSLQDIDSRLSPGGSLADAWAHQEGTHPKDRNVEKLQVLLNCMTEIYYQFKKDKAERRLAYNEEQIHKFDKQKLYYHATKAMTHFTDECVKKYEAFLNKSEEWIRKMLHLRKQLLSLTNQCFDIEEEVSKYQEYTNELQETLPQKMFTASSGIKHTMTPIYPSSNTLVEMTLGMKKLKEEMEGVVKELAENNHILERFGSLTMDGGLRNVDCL

[2] = target: T2, Flag-TBK1 E696G mutant (human) (UniProt Q9UHD2); test: as above
T2 sequence: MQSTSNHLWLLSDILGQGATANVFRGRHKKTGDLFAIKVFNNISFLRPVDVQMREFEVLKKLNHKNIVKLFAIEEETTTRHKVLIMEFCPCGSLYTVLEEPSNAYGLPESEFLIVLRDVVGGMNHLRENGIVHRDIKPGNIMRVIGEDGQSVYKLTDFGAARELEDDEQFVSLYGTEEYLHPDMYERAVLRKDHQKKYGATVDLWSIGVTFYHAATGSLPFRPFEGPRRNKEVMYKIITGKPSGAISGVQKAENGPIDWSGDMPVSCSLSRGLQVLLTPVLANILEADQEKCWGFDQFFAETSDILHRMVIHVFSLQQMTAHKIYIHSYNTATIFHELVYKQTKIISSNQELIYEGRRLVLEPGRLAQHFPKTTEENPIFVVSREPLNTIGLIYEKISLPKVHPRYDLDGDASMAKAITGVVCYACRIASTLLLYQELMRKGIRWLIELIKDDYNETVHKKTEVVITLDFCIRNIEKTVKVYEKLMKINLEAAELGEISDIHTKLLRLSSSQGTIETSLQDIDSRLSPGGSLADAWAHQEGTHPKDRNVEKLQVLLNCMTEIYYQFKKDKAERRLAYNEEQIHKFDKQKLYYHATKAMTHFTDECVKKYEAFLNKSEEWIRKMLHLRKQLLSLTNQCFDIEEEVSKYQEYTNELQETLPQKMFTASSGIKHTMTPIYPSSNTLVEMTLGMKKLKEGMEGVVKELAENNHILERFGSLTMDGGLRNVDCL

[3] = target: T3, Flag-TBK1 I37T mutant (human) (UniProt Q9UHD2); test: as above
T3 sequence: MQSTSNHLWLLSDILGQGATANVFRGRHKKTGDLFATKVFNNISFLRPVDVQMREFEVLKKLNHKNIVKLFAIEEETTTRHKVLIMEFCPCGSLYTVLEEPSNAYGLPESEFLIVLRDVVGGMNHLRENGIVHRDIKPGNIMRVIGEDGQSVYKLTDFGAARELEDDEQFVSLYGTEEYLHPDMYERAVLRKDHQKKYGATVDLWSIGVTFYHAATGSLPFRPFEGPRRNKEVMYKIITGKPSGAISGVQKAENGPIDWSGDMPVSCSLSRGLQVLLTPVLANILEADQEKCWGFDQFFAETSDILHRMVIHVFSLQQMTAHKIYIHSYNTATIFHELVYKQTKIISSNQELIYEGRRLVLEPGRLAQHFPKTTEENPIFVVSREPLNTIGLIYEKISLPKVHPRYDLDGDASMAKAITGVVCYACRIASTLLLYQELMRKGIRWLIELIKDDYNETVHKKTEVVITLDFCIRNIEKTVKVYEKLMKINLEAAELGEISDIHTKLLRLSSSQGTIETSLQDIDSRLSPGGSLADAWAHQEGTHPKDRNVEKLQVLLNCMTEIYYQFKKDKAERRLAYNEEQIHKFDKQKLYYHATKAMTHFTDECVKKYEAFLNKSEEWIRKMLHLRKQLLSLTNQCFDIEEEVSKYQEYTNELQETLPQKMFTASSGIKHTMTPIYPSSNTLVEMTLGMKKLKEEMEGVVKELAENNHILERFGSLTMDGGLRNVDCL

[4] = target: T4, Flag-TBK1 wild-type (human) (UniProt Q9UHD2); test: as above
T4 sequence: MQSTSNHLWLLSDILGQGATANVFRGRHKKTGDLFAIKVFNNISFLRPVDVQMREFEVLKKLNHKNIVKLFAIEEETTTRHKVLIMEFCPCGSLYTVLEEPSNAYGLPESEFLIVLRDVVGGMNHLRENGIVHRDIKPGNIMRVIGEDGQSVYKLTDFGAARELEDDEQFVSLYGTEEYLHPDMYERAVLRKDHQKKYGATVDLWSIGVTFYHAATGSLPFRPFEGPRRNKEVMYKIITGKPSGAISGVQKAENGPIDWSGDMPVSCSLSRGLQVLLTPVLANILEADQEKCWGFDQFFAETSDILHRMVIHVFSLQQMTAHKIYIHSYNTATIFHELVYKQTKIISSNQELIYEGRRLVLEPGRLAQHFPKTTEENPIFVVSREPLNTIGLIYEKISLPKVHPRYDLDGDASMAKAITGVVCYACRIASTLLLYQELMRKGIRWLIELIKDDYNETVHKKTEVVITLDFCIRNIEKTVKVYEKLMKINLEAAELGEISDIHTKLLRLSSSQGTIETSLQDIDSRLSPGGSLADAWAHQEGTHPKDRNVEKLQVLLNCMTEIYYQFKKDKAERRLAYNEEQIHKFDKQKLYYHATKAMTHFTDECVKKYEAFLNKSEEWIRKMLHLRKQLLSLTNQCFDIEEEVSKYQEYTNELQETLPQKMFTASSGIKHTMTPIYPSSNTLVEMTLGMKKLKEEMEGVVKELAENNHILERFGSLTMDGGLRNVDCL

[5] = target: T5, Flag-TBK1 wild-type (human), Q9UHD2; test: non-reducing SDS-PAGE; TBK1 dimerization examined by non-reducing SDS-PAGE and immunoblot of lysates of HEK293T cells expressing Flag-TBK1 wild-type or mutants; conditions: remark: other sources report otherwise
T5 chain: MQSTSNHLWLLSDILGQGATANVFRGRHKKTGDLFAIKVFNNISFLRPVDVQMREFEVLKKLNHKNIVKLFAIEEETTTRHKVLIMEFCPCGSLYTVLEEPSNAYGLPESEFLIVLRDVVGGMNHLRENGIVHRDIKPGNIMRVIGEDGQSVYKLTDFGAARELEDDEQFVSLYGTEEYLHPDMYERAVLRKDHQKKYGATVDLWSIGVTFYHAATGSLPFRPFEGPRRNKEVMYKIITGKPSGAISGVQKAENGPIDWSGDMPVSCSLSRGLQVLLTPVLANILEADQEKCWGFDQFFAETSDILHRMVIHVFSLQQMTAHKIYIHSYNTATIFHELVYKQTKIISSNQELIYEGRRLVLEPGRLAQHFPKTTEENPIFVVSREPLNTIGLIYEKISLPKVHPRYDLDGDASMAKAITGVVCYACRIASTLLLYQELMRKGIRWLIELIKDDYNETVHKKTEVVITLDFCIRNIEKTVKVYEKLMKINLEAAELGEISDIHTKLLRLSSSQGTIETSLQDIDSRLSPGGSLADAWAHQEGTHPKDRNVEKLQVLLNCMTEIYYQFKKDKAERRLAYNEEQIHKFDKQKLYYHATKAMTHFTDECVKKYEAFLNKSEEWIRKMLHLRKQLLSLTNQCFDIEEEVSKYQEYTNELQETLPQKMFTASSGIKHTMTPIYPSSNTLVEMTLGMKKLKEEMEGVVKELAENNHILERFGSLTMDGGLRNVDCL

[6] = target: Flag-TBK1 T77I variant (human) (UniProt Q9UHD2); test: as above
[7] = target: T3, Flag-TBK1 I37T mutant (human); test: as above

B2: Flag-TBK1 T77I variant (enzyme, UniProt Q9UHD2 1-729)
chain: MQSTSNHLWLLSDILGQGATANVFRGRHKKTGDLFAIKVFNNISFLRPVDVQMREFEVLKKLNHKNIVKLFAIEEEITTRHKVLIMEFCPCGSLYTVLEEPSNAYGLPESEFLIVLRDVVGGMNHLRENGIVHRDIKPGNIMRVIGEDGQSVYKLTDFGAARELEDDEQFVSLYGTEEYLHPDMYERAVLRKDHQKKYGATVDLWSIGVTFYHAATGSLPFRPFEGPRRNKEVMYKIITGKPSGAISGVQKAENGPIDWSGDMPVSCSLSRGLQVLLTPVLANILEADQEKCWGFDQFFAETSDILHRMVIHVFSLQQMTAHKIYIHSYNTATIFHELVYKQTKIISSNQELIYEGRRLVLEPGRLAQHFPKTTEENPIFVVSREPLNTIGLIYEKISLPKVHPRYDLDGDASMAKAITGVVCYACRIASTLLLYQELMRKGIRWLIELIKDDYNETVHKKTEVVITLDFCIRNIEKTVKVYEKLMKINLEAAELGEISDIHTKLLRLSSSQGTIETSLQDIDSRLSPGGSLADAWAHQEGTHPKDRNVEKLQVLLNCMTEIYYQFKKDKAERRLAYNEEQIHKFDKQKLYYHATKAMTHFTDECVKKYEAFLNKSEEWIRKMLHLRKQLLSLTNQCFDIEEEVSKYQEYTNELQETLPQKMFTASSGIKHTMTPIYPSSNTLVEMTLGMKKLKEEMEGVVKELAENNHILERFGSLTMDGGLRNVDCL
binding [6]: binds

B3: Flag-TBK1 I37T mutant (enzyme, UniProt Q9UHD2 1-729)
chain: MQSTSNHLWLLSDILGQGATANVFRGRHKKTGDLFATKVFNNISFLRPVDVQMREFEVLKKLNHKNIVKLFAIEEETTTRHKVLIMEFCPCGSLYTVLEEPSNAYGLPESEFLIVLRDVVGGMNHLRENGIVHRDIKPGNIMRVIGEDGQSVYKLTDFGAARELEDDEQFVSLYGTEEYLHPDMYERAVLRKDHQKKYGATVDLWSIGVTFYHAATGSLPFRPFEGPRRNKEVMYKIITGKPSGAISGVQKAENGPIDWSGDMPVSCSLSRGLQVLLTPVLANILEADQEKCWGFDQFFAETSDILHRMVIHVFSLQQMTAHKIYIHSYNTATIFHELVYKQTKIISSNQELIYEGRRLVLEPGRLAQHFPKTTEENPIFVVSREPLNTIGLIYEKISLPKVHPRYDLDGDASMAKAITGVVCYACRIASTLLLYQELMRKGIRWLIELIKDDYNETVHKKTEVVITLDFCIRNIEKTVKVYEKLMKINLEAAELGEISDIHTKLLRLSSSQGTIETSLQDIDSRLSPGGSLADAWAHQEGTHPKDRNVEKLQVLLNCMTEIYYQFKKDKAERRLAYNEEQIHKFDKQKLYYHATKAMTHFTDECVKKYEAFLNKSEEWIRKMLHLRKQLLSLTNQCFDIEEEVSKYQEYTNELQETLPQKMFTASSGIKHTMTPIYPSSNTLVEMTLGMKKLKEEMEGVVKELAENNHILERFGSLTMDGGLRNVDCL
binding [7]: binds

The remaining lines, values ahead:

binding [1]: binds
binding [2]: binds
binding [3]: binds
binding [4]: binds
Molecule: mCherry-OPTN wild-type (from UniProt Q96CV9-1 1-577)

binding [5]: binds
B1: Flag-TBK1 wild-type, Q9UHD2 1-729 (enzyme)
chain: MQSTSNHLWLLSDILGQGATANVFRGRHKKTGDLFAIKVFNNISFLRPVDVQMREFEVLKKLNHKNIVKLFAIEEETTTRHKVLIMEFCPCGSLYTVLEEPSNAYGLPESEFLIVLRDVVGGMNHLRENGIVHRDIKPGNIMRVIGEDGQSVYKLTDFGAARELEDDEQFVSLYGTEEYLHPDMYERAVLRKDHQKKYGATVDLWSIGVTFYHAATGSLPFRPFEGPRRNKEVMYKIITGKPSGAISGVQKAENGPIDWSGDMPVSCSLSRGLQVLLTPVLANILEADQEKCWGFDQFFAETSDILHRMVIHVFSLQQMTAHKIYIHSYNTATIFHELVYKQTKIISSNQELIYEGRRLVLEPGRLAQHFPKTTEENPIFVVSREPLNTIGLIYEKISLPKVHPRYDLDGDASMAKAITGVVCYACRIASTLLLYQELMRKGIRWLIELIKDDYNETVHKKTEVVITLDFCIRNIEKTVKVYEKLMKINLEAAELGEISDIHTKLLRLSSSQGTIETSLQDIDSRLSPGGSLADAWAHQEGTHPKDRNVEKLQVLLNCMTEIYYQFKKDKAERRLAYNEEQIHKFDKQKLYYHATKAMTHFTDECVKKYEAFLNKSEEWIRKMLHLRKQLLSLTNQCFDIEEEVSKYQEYTNELQETLPQKMFTASSGIKHTMTPIYPSSNTLVEMTLGMKKLKEEMEGVVKELAENNHILERFGSLTMDGGLRNVDCL
